Literature values in patent US9359303B2, “Octahydrobenzoisoquinoline modulators of dopamine receptors and uses therefor” (Purdue Research Foundation, priority 2009, dated 2016).
At least one structure is not confirmed: it was looked up by name or label, or the drawing left a doubt.

System: unilateral 6-OHDA rats
Conditions: in the rotation assay; 0.5 mg/kg s.c.; cited from earlier work

CN1CCc2cc(Cl)c(O)cc2[C@@H](c2ccccc2)C1 [SCH-23390]
duration of action: approximately 3 h
